{"source": "paper PMC8118649", "molecules": {"B1": {"name": "Flag-ZNRF1 (zinc and ring finger 1), transiently overexpressed in A549 cells (enzyme, UniProt Q8ND25 1-227)", "chain": "MGGKQSTAARSRGPFPGVSTDDSAVPPPGGAPHFGHYRTGGGAMGLRSRSVSSVAGMGMDPSTAGGVPFGLYTPASRGTGDSERAPGGGGSASDSTYAHGNGYQETGGGHHRDGMLYLGSRASLADALPLHIAPRWFSSHSGFKCPICSKSVASDEMEMHFIMCLSKPRLSYNDDVLTKDAGECVICLEELLQGDTIARLPCLCIYHKSCIDSWFEVNRSCPEHPAD"}, "B2": {"name": "ZNRF1, endogenous in A549 cells (enzyme, UniProt Q8ND25 1-227)", "chain": "B1 chain"}, "B3": {"name": "Flag-tagged full-length ZNRF1, expressed in HEK293T cells (enzyme, UniProt Q8ND25 1-227)", "chain": "B1 chain"}, "B4": {"name": "Myc-tagged ZNRF1, expressed in A549 cells (enzyme, UniProt Q8ND25 1-227)", "chain": "B1 chain"}}, "key": {"[1]": {"molecular_target": "T1, Flag-ZNRF1 (zinc and ring finger 1), transiently overexpressed in A549 cells (UniProt Q8ND25)", "T1 sequence": "B1 chain", "test": "co-IP; A549 cells expressing empty vector or Flag-ZNRF1, serum-starved overnight, 100 ng/mL EGF for the indicated times; reciprocal immunoprecipitations; lysis buffer 150 mM NaCl, 50 mM Tris-HCl pH 7.5, 2 mM EDTA, 1% Triton X-100, 0.5% NP-40, 10% glycerol"}, "[2]": {"molecular_target": "epidermal growth factor receptor (EGFR), endogenous in A549 cells (human (endogenous in A549)) (UniProt P00533)", "test": "co-IP; A549 cells expressing empty vector or Flag-ZNRF1, serum-starved overnight, 100 ng/mL EGF for the indicated times; reciprocal immunoprecipitations; lysis buffer 150 mM NaCl, 50 mM Tris-HCl pH 7.5, 2 mM EDTA, 1% Triton X-100, 0.5% NP-40, 10% glycerol"}, "[3]": {"molecular_target": "epidermal growth factor receptor (EGFR), endogenous in A549 cells (human (endogenous in A549)) (UniProt P00533)", "test": "co-IP; endogenous proteins of A549 cells, serum-starved overnight, with and without 100 ng/mL EGF; EGFR immunoprecipitated; also in cells expressing shLuc or shCBL (Figure 5E); lysis buffer 150 mM NaCl, 50 mM Tris-HCl pH 7.5, 2 mM EDTA, 1% Triton X-100, 0.5% NP-40, 10% glycerol"}, "[4]": {"molecular_target": "Myc-tagged full-length EGFR, expressed in HEK293T cells (UniProt P00533)", "test": "co-IP; HEK293T cells co-transfected for 48 h with Myc-tagged EGFR (full-length or truncated) and Flag-tagged ZNRF1 (full-length or truncated); immunoprecipitation and immunoblotting with the indicated antibodies"}, "[5]": {"molecular_target": "epidermal growth factor receptor (EGFR), endogenous in A549 cells (human (endogenous in A549)) (UniProt P00533)", "test": "proximity ligation; A549 cells transfected with Myc-tagged ZNRF1 for 48 h, fixed and permeabilised; antibodies against EGFR and Myc; Duolink In Situ Detection Reagent Red"}}, "note": "No constants are given. Whether binding was seen depends on the method and setting. Binding seen in cells or lysates may run through a third protein. Some results given as binding are weak or reduced against the parent protein; the word gives no strength. For some assays here: Sequences can lack the tags named with a protein."}
{"molecule": "epidermal growth factor receptor (EGFR), endogenous in A549 cells (from UniProt P00533 25-1210)", "values": [{"measurement": "binding", "setting": "[1]", "value": "binds"}]}
{"molecule": "B1", "values": [{"measurement": "binding", "setting": "[2]", "value": "binds"}]}
{"molecule": "B2", "values": [{"measurement": "binding", "setting": "[3]", "value": "binds"}]}
{"molecule": "B3", "values": [{"measurement": "binding", "setting": "[4]", "value": "binds"}]}
{"molecule": "B4", "values": [{"measurement": "binding", "setting": "[5]", "value": "binds"}]}
